Measurements from PubChem BioAssay AID330 (DTP/NCI, 2004).
The list shows only some results of the screen, not a fair sample: it gathers tests that were run many times, whatever their T/C, doses with no T/C, and many T/C values between a quarter and a half above the control. Further doses and runs are listed elsewhere. T/C gives the treated animals as a percentage of the vehicle group. Some doses have a count of surviving animals in place of a T/C: the source files T/C as zero there, which appears to mark a toxic dose or a test without result, not a measured value. Some doses without a T/C left all or most animals alive at the check, yet need not have been tolerated: the source hardly ever lists a survival T/C far under the control, and the zero likely stands for such cases as well. Survivors were counted at the toxicity check, usually on the fifth day, unless a day is given; later deaths do not show. Schedule codes are those of the source, taken here to give the interval after Q, in days (D) or hours (H), and the number of doses after X. Counts like (3×) count equal records among those shown. Some entries were tested several times; the results are listed from low to high. Where survival is the endpoint, this PubChem deposit counts one and a half times the control or more as active, and values a quarter to a half above the control carry no call in these data; other NCI protocols may use other cut-offs. Some T/C values carry the count of animals alive at the toxicity check (mostly the fifth day); where none is given, no animal had died by that day. Some schedules carry Z or #; the key to these is not given.

Test system: P388 leukemia ip, CD2F1 mice, survival T/C
Experiment: NCI In Vivo Anticancer Drug Screen. Data for tumor model P388 Leukemia (intraperitoneal) in CD2F1 (CDF1) mice
Details: T/C endpoint: median survival time, higher T/C = longer survival
[1] = dose: 0.1 mg/kg/injection, schedule: Q01DX009 (ip), vehicle: distilled water + Tween-80
[2] = dose: 0.2 mg/kg/injection, schedule: Q01DX009 (ip), vehicle: distilled water + Tween-80
[3] = dose: 0.4 mg/kg/injection, schedule: Q01DX009 (ip), vehicle: water

Compound: COC1=C(N)C(=O)c2nc(-c3nc(C(=O)O)c(C)c(-c4ccc(OC)c(OC)c4O)c3N)ccc2C1=O
- T/C (dose: 0.02 mg/kg/injection, schedule: Q01DX009 (ip), vehicle: other, evaluated on day 5): 101 and 147 % of control
- T/C (dose: 0.02 mg/kg/injection, schedule: Q01DX009 (ip), vehicle: other, evaluated on day 23): 148 % of control
- T/C (dose: 0.02 mg/kg/injection, schedule: Q01DX009 (ip), vehicle: other, evaluated on day 25): 101 % of control
- T/C (dose: 0.02 mg/kg/injection, schedule: Q01DX009 (ip), vehicle: other, evaluated on day 30): 101 % of control [7 of 8 alive]
- T/C (dose: 0.02 mg/kg/injection, schedule: Q01DX009 (ip), vehicle: other, evaluated on day 35): 120 % of control
- T/C (dose: 0.02 mg/kg/injection, schedule: Q## X008 (ip), vehicle: other): 130 % of control [8 of 10 alive]
- T/C (dose: 0.03 mg/kg/injection, schedule: Q01DX009 (ip), vehicle: water): 131 % of control
- T/C (dose: 0.04 mg/kg/injection, schedule: Q01DX009 (ip), vehicle: other, evaluated on day 5): 110 and 130 % of control
- T/C (dose: 0.04 mg/kg/injection, schedule: Q01DX009 (ip), vehicle: other, evaluated on day 23): 130 % of control
- T/C (dose: 0.04 mg/kg/injection, schedule: Q01DX009 (ip), vehicle: other, evaluated on day 25): 110 % of control
- T/C (dose: 0.04 mg/kg/injection, schedule: Q01DX009 (ip), vehicle: other, evaluated on day 28): 113 % of control
- T/C (dose: 0.04 mg/kg/injection, schedule: Q01DX009 (ip), vehicle: other, evaluated on day 30): 123 % of control
- T/C (dose: 0.05 mg/kg/injection, schedule: Q01DX009 (ip), vehicle: distilled water + Tween-80): 120, 121, 133 (2×), 137, 148 % of control
- T/C (dose: 0.05 mg/kg/injection, schedule: Q01DX009 (ip), vehicle: other, evaluated on day 5): 116 and 133 % of control
- T/C (dose: 0.05 mg/kg/injection, schedule: Q01DX009 (ip), vehicle: other, evaluated on day 22): 116 % of control
- T/C (dose: 0.05 mg/kg/injection, schedule: Q01DX009 (ip), vehicle: other, evaluated on day 25): 133 % of control
- T/C (dose: 0.05 mg/kg/injection, schedule: Q01DX009 (ip), vehicle: other, evaluated on day 28): 130 % of control
- T/C (dose: 0.05 mg/kg/injection, schedule: Q01DX009 (ip), vehicle: other, evaluated on day 30): 115, 119 (2×), 121, 122, 123, 137, 149 % of control
- T/C (dose: 0.05 mg/kg/injection, schedule: Q01DX009 (ip), vehicle: other, evaluated on day 35): 120 % of control
- T/C (dose: 0.05 mg/kg/injection, schedule: Q01DX009 (ip), vehicle: other, evaluated on day 45): 148 % of control
- T/C (dose: 0.05 mg/kg/injection, schedule: Q01DX009 (ip), vehicle: water): 104, 117, 120, 122 (2×), 132 [5 of 6 alive], 135, 137, 142 % of control
- T/C (dose: 0.06 mg/kg/injection, schedule: Q01DX009 (ip), vehicle: dioxane): 126 % of control
- T/C (dose: 0.06 mg/kg/injection, schedule: Q01DX009 (ip), vehicle: other, evaluated on day 5): 135 % of control
- T/C (dose: 0.06 mg/kg/injection, schedule: Q01DX009 (ip), vehicle: other, evaluated on day 25): 135 % of control
- T/C (dose: 0.06 mg/kg/injection, schedule: Q01DX009 (ip), vehicle: other, evaluated on day 28): 126 % of control
- T/C (dose: 0.06 mg/kg/injection, schedule: Q01DX009 (ip), vehicle: other, evaluated on day 30): 124 % of control
- T/C (dose: 0.08 mg/kg/injection, schedule: Q01DX009 (ip), vehicle: distilled water + Tween-80): 130 and 133 % of control
- T/C (dose: 0.08 mg/kg/injection, schedule: Q01DX009 (ip), vehicle: other, evaluated on day 5): 140 % of control
- T/C (dose: 0.08 mg/kg/injection, schedule: Q01DX009 (ip), vehicle: other, evaluated on day 23): 140 % of control
- T/C (dose: 0.08 mg/kg/injection, schedule: Q01DX009 (ip), vehicle: other, evaluated on day 28): 117 % of control
- T/C (dose: 0.08 mg/kg/injection, schedule: Q01DX009 (ip), vehicle: other, evaluated on day 30): 110 % of control
- T/C (dose: 0.08 mg/kg/injection, schedule: Q01DX009 (ip), vehicle: saline with Tween-80): 140 % of control
- T/C (dose: 0.09 mg/kg/injection, schedule: Q01DX009 (ip), vehicle: dioxane): 129 % of control
- T/C [1]: 100, 113, 127, 128, 134 % of control
- survivor count [1]: 6 of 6
- T/C (dose: 0.1 mg/kg/injection, schedule: Q01DX009 (ip), vehicle: other, evaluated on day 5): 112 % of control
- T/C (dose: 0.1 mg/kg/injection, schedule: Q01DX009 (ip), vehicle: other, evaluated on day 22): 112 % of control [7 of 8 alive]
- T/C (dose: 0.1 mg/kg/injection, schedule: Q01DX009 (ip), vehicle: other, evaluated on day 28): 106 % of control
- T/C (dose: 0.1 mg/kg/injection, schedule: Q01DX009 (ip), vehicle: other, evaluated on day 30): 100, 105, 117, 123, 129, 137 % of control
- T/C (dose: 0.1 mg/kg/injection, schedule: Q01DX009 (ip), vehicle: other, evaluated on day 35): 130 % of control
- T/C (dose: 0.1 mg/kg/injection, schedule: Q01DX009 (ip), vehicle: other, evaluated on day 45): 131 % of control
- survivor count (dose: 0.1 mg/kg/injection, schedule: Q01DX009 (ip), vehicle: other): 6 of 6
- T/C (dose: 0.1 mg/kg/injection, schedule: Q01DX009 (ip), vehicle: water): 112, 123, 132, 135, 139, 140 (2×), 141, 143 % of control
- T/C (dose: 0.1 mg/kg/injection, schedule: Q## X024 (ip), vehicle: other): 130 % of control
- T/C (dose: 0.12 mg/kg/injection, schedule: Q01DX009 (ip), vehicle: dioxane): 130 % of control
- T/C (dose: 0.12 mg/kg/injection, schedule: Q01DX009 (ip), vehicle: saline with Tween-80): 140 % of control
- T/C (dose: 0.16 mg/kg/injection, schedule: Q01DX009 (ip), vehicle: distilled water + Tween-80): 133 % of control
- T/C (dose: 0.18 mg/kg/injection, schedule: Q01DX009 (ip), vehicle: dioxane): 126 % of control
- T/C (dose: 0.18 mg/kg/injection, schedule: Q01DX009 (ip), vehicle: saline with Tween-80): 125 % of control
- T/C [2]: 96, 100, 101, 108 % of control
- survivor count [2]: 6 of 6
- T/C (dose: 0.2 mg/kg/injection, schedule: Q01DX009 (ip), vehicle: other, evaluated on day 5): 84 % of control
- T/C (dose: 0.2 mg/kg/injection, schedule: Q01DX009 (ip), vehicle: other, evaluated on day 30): 90, 106, 110, 123 % of control
- T/C (dose: 0.2 mg/kg/injection, schedule: Q01DX009 (ip), vehicle: other, evaluated on day 35): 130 % of control
- T/C (dose: 0.2 mg/kg/injection, schedule: Q01DX009 (ip), vehicle: other, evaluated on day 45): 115 % of control
- survivor count (dose: 0.2 mg/kg/injection, schedule: Q01DX009 (ip), vehicle: other): 6 of 6 and 8 of 8
- T/C (dose: 0.2 mg/kg/injection, schedule: Q01DX009 (ip), vehicle: water): 86, 94, 104, 123, 127, 137 (2×), 138, 149 % of control
- T/C (dose: 0.4 mg/kg/injection, schedule: Q01DX001 (ip), vehicle: other): 130 % of control
- survivor count (dose: 0.4 mg/kg/injection, schedule: Q01DX009 (ip), vehicle: distilled water + Tween-80): 6 of 6 (2×)
- T/C (dose: 0.4 mg/kg/injection, schedule: Q01DX009 (ip), vehicle: other, evaluated on day 5): 60 % of control
- T/C (dose: 0.4 mg/kg/injection, schedule: Q01DX009 (ip), vehicle: other, evaluated on day 30): 87 and 92 % of control
- survivor count (dose: 0.4 mg/kg/injection, schedule: Q01DX009 (ip), vehicle: other): 3 of 6, 6 of 6 (2×), 8 of 8
- T/C [3]: 95, 100, 119, 122, 132 % of control
- survivor count [3]: 5 of 6, 3 of 3, 6 of 6 (2×)
- survivor count (dose: 0.63 mg/kg/injection, schedule: Q01DX009 (ip), vehicle: distilled water + Tween-80): 4 of 6 and 6 of 6
- survivor count (dose: 1.25 mg/kg/injection, schedule: Q01DX009 (ip), vehicle: distilled water + Tween-80): 1 of 6 and 2 of 6
- T/C (dose: 1.25 mg/kg/injection, schedule: Q01DX009 (ip), vehicle: saline with Tween-80): 145 % of control
- survivor count (dose: 2.5 mg/kg/injection, schedule: Q01DX009 (ip), vehicle: distilled water + Tween-80): 0 of 6
- survivor count (dose: 5.0 mg/kg/injection, schedule: Q01DX009 (ip), vehicle: distilled water + Tween-80): 0 of 6
- survivor count (dose: 5.0 mg/kg/injection, schedule: Q01DX009 (ip), vehicle: saline with Tween-80): 6 of 6
- survivor count (dose: 6.4 mg/kg/injection, schedule: Q01DX001 (oral), vehicle: other): 8 of 10
- survivor count (dose: 10.0 mg/kg/injection, schedule: Q01DX009 (ip), vehicle: distilled water + Tween-80): 0 of 6
- T/C (dose: 100.0 mg/kg/injection, schedule: Q01DX009 (ip), vehicle: distilled water + Tween-80): 135 % of control
- T/C (dose: 50.0 micrograms/kg/injection, schedule: Q01DX009 (ip), vehicle: other): 128 % of control
- T/C (dose: 100.0 micrograms/kg/injection, schedule: Q01DX009 (ip), vehicle: other): 129 % of control
- T/C (dose: 200.0 micrograms/kg/injection, schedule: Q01DX009 (ip), vehicle: other): 129 % of control
